This is one part of the list.

Compound in the first assay: C[C@@H](Oc1cc(-c2cnn(C3CCNCC3)c2)cnc1N)c1c(Cl)ccc(F)c1Cl [crizotinib]
The experiment in a line: log2 fold change, soluble protein after heating vs DMSO (PISA); higher = thermal stabilisation; K562 lysate, 10 uM; active = over 0.2 and 3.5 SD of the protein, either way, in both replicates (recomputed). The procedure, abridged: (§1)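 Thermal stability, expressed as log-two fold change relative to solvent controls, is given from duplicates. Crude K562 extract in PBS pH 7.4 with 1 mM MgCl2, at 1 mg/mL protein, was treated with 10 μM compound for 30 min and heated in aliquots for 3 min across 48°C-58°C. After pooling, adjustment to 0.5% NP-40 at 4°C and centrifugation at 21,000xg for 90 min, supernatant protein was measured by TMTpro 16plex LC-MS/MS with channel sums equalised.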
Turning to USP36 (UniProt Q9P275), the log2 fold change is inactive: -0.093. For the target UMAD1 (UniProt C9J7I0), the log2 fold change was inactive: 0.082. Same read-out and setting: the figure for USP54 (UniProt Q70EL1) is inactive: -0.029; for UNC13B isoform 2 (UniProt O14795) it is inactive: 0. On the same count and under the same terms, the figure for USP12 (UniProt O75317) is inactive: -0.054; for USP37 (UniProt Q86T82) it is inactive: -0.021; for USP30 (UniProt Q70CQ3) it is inactive: -0.063. Same read-out and setting: as for UHRF2 (UniProt Q96PU4), the figure is inactive: -0.07; as for VEGFA isoform 14 (UniProt P15692), inactive: 0.036; as for USP6NL isoform 2 (UniProt Q92738), inactive: -0.224.

With USP27X (UniProt A6NNY8), the log2 fold change was inactive: -0.149. On the same count and under the same terms, as for VCPKMT (UniProt Q9H867), the figure is inactive: -0.139; as for UNKL (UniProt E9PDK2), inactive: -0.078; as for USP20 (UniProt Q9Y2K6), inactive: -0.037. Same read-out and setting: the figure for USP40 isoform 3 (UniProt Q9NVE5) is inactive: -0.096; for UGCG (UniProt Q16739) it is inactive: 0.196; for USP22 (UniProt Q9UPT9) it is inactive: -0.072.

Turning to VHL (UniProt P40337), the log2 fold change was inactive: 0.017. Consider UCP2 (UniProt P55851), for which the log2 fold change is active: -0.441. For VGLL4 isoform 4 (UniProt Q14135), the log2 fold change is inactive: 0.109. Still for that read-out and setting: the figure for USP15 isoform 3 (UniProt Q9Y4E8) is inactive: 0.032; for UNC119 (UniProt Q13432) it is inactive: -0.002; for USP33 (UniProt Q8TEY7) it is inactive: -0.476.

Compound in another assay: C[C@H](C1=CC=C(C=C1)C(=O)NC2=C3C=CNC3=NC=C2)N
Described as above. The procedure, abridged:
as §1
Turning to USP36 (UniProt Q9P275), the log2 fold change was inactive: 0.034. Regarding VEGFA (UniProt H0YBI8), the log2 fold change was inactive: 0.026. For the target UNG (UniProt P13051), the log2 fold change was inactive: -0.071. Take UMAD1 (UniProt C9J7I0): the log2 fold change is inactive: 0.178. On to USP12 (UniProt O75317), for which the log2 fold change was inactive: -0.067. Same read-out and setting: the figure for USP30 (UniProt Q70CQ3) is inactive: 0.1; for VEGFA isoform 14 (UniProt P15692) it is inactive: -0.049. Still for that read-out and setting: the figure for USP6NL isoform 2 (UniProt Q92738) is inactive: 0.018; for UTRN isoform 2 (UniProt P46939) it is inactive: -0.009. As to UNC13A (UniProt Q9UPW8), the log2 fold change is inactive: -1.52. Turning to USP22 (UniProt Q9UPT9), the log2 fold change is inactive: 0.004. On the same count and under the same terms, the figure for VHL (UniProt P40337) is active: -0.538; for VGLL4 isoform 4 (UniProt Q14135) it is inactive: -0.077. Same read-out and setting: as for USP33 (UniProt Q8TEY7), the figure is inactive: -0.362.

Values taken from the supplement of paper PMC10849652.
